Reference: US20160257957A1, “METHODS AND COMPOSITIONS FOR TREATMENT OF ANGELMAN SYNDROME AND AUTISM SPECTRUM DISORDERS” (PRESIDENT AND FELLOWS OF HARVARD COLLEGE, priority 2010, published 2016)
No constants are given. Whether binding was seen depends on the method and setting. For some assays here: In cells and extracts the contact can be indirect. Some binding calls cover weakened binding; strength is not graded here.

What was measured:
[1] = molecular target: T1, Ube3A (endogenous, mouse brain lysate) (mouse), O08759; assay: co-immunoprecipitation from mouse brain extracts (FIG. 9A); settings: remark: other sources report otherwise
T1 chain: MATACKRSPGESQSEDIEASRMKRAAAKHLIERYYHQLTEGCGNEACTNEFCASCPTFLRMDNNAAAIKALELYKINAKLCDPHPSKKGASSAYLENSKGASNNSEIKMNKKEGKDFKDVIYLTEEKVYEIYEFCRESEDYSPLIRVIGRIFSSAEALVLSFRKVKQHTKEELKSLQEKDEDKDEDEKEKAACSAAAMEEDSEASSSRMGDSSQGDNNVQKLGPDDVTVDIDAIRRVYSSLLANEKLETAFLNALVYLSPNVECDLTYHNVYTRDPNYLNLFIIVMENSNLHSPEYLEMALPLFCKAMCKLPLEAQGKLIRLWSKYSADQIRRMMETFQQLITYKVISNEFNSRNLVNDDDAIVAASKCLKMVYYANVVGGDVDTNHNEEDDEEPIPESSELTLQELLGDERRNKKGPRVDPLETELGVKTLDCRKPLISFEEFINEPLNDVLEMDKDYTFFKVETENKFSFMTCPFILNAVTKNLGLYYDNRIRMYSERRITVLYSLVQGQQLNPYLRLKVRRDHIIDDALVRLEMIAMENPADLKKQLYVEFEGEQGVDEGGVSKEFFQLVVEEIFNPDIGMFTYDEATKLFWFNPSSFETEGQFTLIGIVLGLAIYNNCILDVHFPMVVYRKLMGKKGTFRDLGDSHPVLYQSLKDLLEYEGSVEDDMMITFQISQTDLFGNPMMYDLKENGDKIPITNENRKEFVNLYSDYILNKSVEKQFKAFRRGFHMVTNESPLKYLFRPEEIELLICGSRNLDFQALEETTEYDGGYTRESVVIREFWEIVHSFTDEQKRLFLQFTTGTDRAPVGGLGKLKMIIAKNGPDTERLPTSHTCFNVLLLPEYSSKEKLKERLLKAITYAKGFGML

[2] = molecular target: T1, Ube3A (endogenous, mouse brain lysate) …; assay: anti-Ube3A immunoprecipitation from brain lysates of wild type and Ube3A knockout mice, anti-Arc Western blot; settings: remark: other sources report otherwise

B1: Arc (endogenous, mouse brain lysate), Q9WV31 1-396 (protein, UniProt Q9WV31 1-396, looked up)
chain: MELDHMTTGGLHAYPAPRGGPAAKPNVILQIGKCRAEMLEHVRRTHRHLLTEVSKQVERELKGLHRSVGKLENNLDGYVPTGDSQRWKKSIKACLCRCQETIANLERWVKREMHVWREVFYRLERWADRLESMGGKYPVGSEPARHTVSVGVGGPEPYCQEADGYDYTVSPYAITPPPAAGELPEQESVEAQQYQSWGPGEDGQPSPGVDTQIFEDPREFLSHLEEYLRQVGGSEEYWLSQIQNHMNGPAKKWWEFKQGSVKNWVEFKKEFLQYSEGTLSREAIQRELELPQKQGEPLDQFLWRKRDLYQTLYVDAEEEEIIQYVVGTLQPKLKRFLRHPLPKTLEQLIQRGMEVQDGLEQAAEPSGTPLPTEDETEALTPALTSESVASDRTQPE
- binding [1]: binds
- binding [2]: binds
